Laboratory results: PubChem BioAssay AID1508597 (Cure First, 2020)
This is a random part of the about 2,100 reagents, under one of the conditions tested. 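Calls flag viability under 80% in either arm, not effects specific to rucaparib; the reference for percent is not stated.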 A reagent listed more than once was tested more than once; the source does not tell the runs apart. The record does not give: the 100% reference.

Assay: 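Knock-downs altering ovarian cancer cell survival with or without PARP inhibitor rucaparib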 (primary screen)
Cells: human ovarian carcinoma lines grown from tumours: OCI-P5x (papillary serous) and OCI-C5x (clear cell)
Knock-down reagent: siRNA pool against human genes, 1.25 pmol siRNA per well
Time to read-out: 72 h or 96 h, depending on the cell culture
Conditions: rucaparib 20 µM (about IC30) or vehicle, present until read-out
Rucaparib or vehicle: Vehicle
Cell line: OCI-P5x (serous)
Read-out: 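Luminescent ATP-based viability assay read 72 or 96 h after transfection, depending on culture, given as normalised percent viability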
Reading the numbers: viability, normalised: higher = more viable cells remaining
Hit rule: 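a well counts as a hit if its normalised viability is under 80 percent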
Calls: active = viability under 80%; inactive = viability 80% or more

Gene	technical replicate	viability, normalised (%)	outcome
MORC2	1	42.4	active
MORC2	2	48	active
MORC2	3	51.7	active
EIF4A2	1	52.1	active
EIF4A2	2	63.3	active
EIF4A2	3	58.7	active
SOX15	1	39.5	active
SOX15	2	50.2	active
SOX15	3	63.5	active
MBD4	1	84	inactive
MBD4	1	58	active
MBD4	2	81.3	inactive
MBD4	2	33.8	active
MBD4	3	67.5	active
MBD4	3	102	inactive
TKFC	1	67.9	active
TKFC	2	46.1	active
TKFC	3	52.4	active
MMS22L	1	113	inactive
MMS22L	2	95.8	inactive
MMS22L	3	92.3	inactive
DNMT1	1	69.7	active
DNMT1	2	73	active
DNMT1	3	78.4	active
AURKB	1	68.5	active
AURKB	1	61.6	active
AURKB	2	76.4	active
AURKB	2	81.1	inactive
AURKB	3	65.5	active
AURKB	3	67.8	active
SMARCAD1	1	47.1	active
SMARCAD1	2	46.9	active
SMARCAD1	3	53.8	active
INSR	1	99.2	inactive
INSR	2	89.2	inactive
INSR	3	95.9	inactive
ATAD2	1	69.6	active
ATAD2	2	86.2	inactive
ATAD2	3	49.6	active
CTSD	1	87.4	inactive
CTSD	2	69.1	active
CTSD	3	79.9	active
PDE6H	1	79.9	active
PDE6H	2	78	active
PDE6H	3	103	inactive
IFNAR1	1	65.1	active
IFNAR1	2	65.1	active
IFNAR1	3	103	inactive
PIWIL2	1	40.5	active
PIWIL2	2	59.1	active
PIWIL2	3	80	inactive
EXO1	1	72.4	active
EXO1	2	70.9	active
EXO1	3	56.8	active
CXXC5	1	52.6	active
CXXC5	2	82.6	inactive
CXXC5	3	79	active

Single entries from above:
Entry of CTSD, technical replicate 1 in “viability, normalised (%)”: 87.4
SOX15, technical replicate 1, outcome → active
For “viability, normalised (%)”, PDE6H, technical replicate 3 reads 103
Result of DNMT1, technical replicate 1 in “outcome”: active
EXO1, technical replicate 2, viability, normalised (%): 70.9
